PubChem BioAssay AID743121 – NCATS, 2013

Test: 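Genes whose silencing strengthens cell killing by camptothecin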 (primary screen)
Cell system: MDA-MB-231 cells, a human breast cancer line
Reagent: single siRNA against human genes, 20 nM siRNA (0.8 pmol per well)
Timing: 120 h (drug added 48 h after transfection, read 72 h later)
Conditions: camptothecin 20 nM (about EC30) for 72 h; vehicle 0.1% DMSO in parallel plates
Detection: 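CellTiter-Glo ATP signal, scaled to control siRNA as percent viability; sensitisation given as log2 of untreated divided by camptothecin-treated viability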
Scale: log2 vehicle/camptothecin viability: higher = stronger sensitisation to camptothecin
Rule for the call: 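Each gene scored by redundant siRNA activity (RSA) over its individual siRNA ratios; a gene is called active at p < 0.001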
The whole screen tested about 26,000 reagents; this is an unselected part. In the full data, 167 (0.63%) got an active call. 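Calls are per gene from RSA p-values that are not deposited; an individual active-marked siRNA can sensitise only weakly.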 Unmarked entries are inactive. Reagents against one gene are numbered here. Not all columns of the deposit are shown. No sequences are given here.

target	reagent	log2 vehicle/camptothecin viability
MCOLN3	1	-0.0424
MCOLN3	2	0.0488
MCOLN3	3	-0.31
SNAP23	1	1.16
SNAP23	2	-0.132
SNAP23	3	-0.583
SNAP23	4	-0.192
IL26	1	0.102
IL26	2	-0.178
IL26	3	-1.02
FTH1	1	-0.35
FTH1	2	0.0359
FTH1	3	-0.156
FTH1	4	-0.118
APH1A	1	0.251
APH1A	2	-0.554
APH1A	3	-0.826
APH1A	4	0.454
APH1A	5	0.0363
APH1A	6	-0.0703
APH1A	7	-0.467
APH1A	8	0.0585
TRPM4	1	-0.525
TRPM4	2	-0.34
TRPM4	3	-0.14
AIP	1	-0.258
AIP	2	-0.445
AIP	3	-0.194
